Laboratory results taken from article PMC6754446.
These are yes or no findings as the source states them, for the method shown.

Biological target: OTULINcat (aa 80-352) (human) (UniProt Q96BN8)
Test: condition: 150-450 µM PDZ variant in the syringe, 20-30 µM OTULINcat variant in the cell; ITC; PDZ variant (150-450 µM) in the syringe, OTULINcat variant (20-30 µM) in the cell; 25 °C; 20 mM HEPES pH 7.4, 200 mM NaCl, 2 mM TCEP; single-site binding model; both purified

- binding: no binding
B1: MUPP1 PDZ8 (1346-1436) (domain or fragment, UniProt O75970 1346-1436)
chain: GELHMIELEKGHSGLGLSLAGNKDRSRMSVFIVGIDPNGAAGKDGRLQIADELLEINGQILYGRSHQNASSIIKCAPSKVKIIFIRNKDAV
